± gives the standard deviation of the averaged measurements. Some of the results follow.
Assays:
Assay in all cases: NP40-soluble protein abundance relative to vehicle (solubility fold change) (ratio); higher = more soluble protein in presence of GTP
[1] = target: T1, ALG5 (UniProt Q9Y673)
T1 sequence (whole entry): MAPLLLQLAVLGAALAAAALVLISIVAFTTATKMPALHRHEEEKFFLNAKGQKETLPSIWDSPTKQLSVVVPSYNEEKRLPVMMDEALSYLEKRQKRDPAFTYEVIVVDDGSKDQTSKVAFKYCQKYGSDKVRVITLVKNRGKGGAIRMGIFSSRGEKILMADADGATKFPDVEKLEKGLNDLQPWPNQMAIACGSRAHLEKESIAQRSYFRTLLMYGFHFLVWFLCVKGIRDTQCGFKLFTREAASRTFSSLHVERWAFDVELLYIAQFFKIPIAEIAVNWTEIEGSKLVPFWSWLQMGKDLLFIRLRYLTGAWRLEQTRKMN
Procedure, shortened: (§1)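 Across three independent experiments, values are fold changes against the detergent-processed vehicle for each replicate, based on vsn-normalised intensities. The samples were Jurkat crude lysate treated with eight concentrations (0.1 to 10 mM) for 10 min at room temperature and then 3 min at 37 °C. Lysate was solubilised with 0.8% NP40 and benzonase, ultracentrifuged, and the supernatant analysed by TMT-labelled LC-MS/MS.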

[2] = target: T2, ATP11B (UniProt Q9Y2G3)
T2 sequence (whole entry): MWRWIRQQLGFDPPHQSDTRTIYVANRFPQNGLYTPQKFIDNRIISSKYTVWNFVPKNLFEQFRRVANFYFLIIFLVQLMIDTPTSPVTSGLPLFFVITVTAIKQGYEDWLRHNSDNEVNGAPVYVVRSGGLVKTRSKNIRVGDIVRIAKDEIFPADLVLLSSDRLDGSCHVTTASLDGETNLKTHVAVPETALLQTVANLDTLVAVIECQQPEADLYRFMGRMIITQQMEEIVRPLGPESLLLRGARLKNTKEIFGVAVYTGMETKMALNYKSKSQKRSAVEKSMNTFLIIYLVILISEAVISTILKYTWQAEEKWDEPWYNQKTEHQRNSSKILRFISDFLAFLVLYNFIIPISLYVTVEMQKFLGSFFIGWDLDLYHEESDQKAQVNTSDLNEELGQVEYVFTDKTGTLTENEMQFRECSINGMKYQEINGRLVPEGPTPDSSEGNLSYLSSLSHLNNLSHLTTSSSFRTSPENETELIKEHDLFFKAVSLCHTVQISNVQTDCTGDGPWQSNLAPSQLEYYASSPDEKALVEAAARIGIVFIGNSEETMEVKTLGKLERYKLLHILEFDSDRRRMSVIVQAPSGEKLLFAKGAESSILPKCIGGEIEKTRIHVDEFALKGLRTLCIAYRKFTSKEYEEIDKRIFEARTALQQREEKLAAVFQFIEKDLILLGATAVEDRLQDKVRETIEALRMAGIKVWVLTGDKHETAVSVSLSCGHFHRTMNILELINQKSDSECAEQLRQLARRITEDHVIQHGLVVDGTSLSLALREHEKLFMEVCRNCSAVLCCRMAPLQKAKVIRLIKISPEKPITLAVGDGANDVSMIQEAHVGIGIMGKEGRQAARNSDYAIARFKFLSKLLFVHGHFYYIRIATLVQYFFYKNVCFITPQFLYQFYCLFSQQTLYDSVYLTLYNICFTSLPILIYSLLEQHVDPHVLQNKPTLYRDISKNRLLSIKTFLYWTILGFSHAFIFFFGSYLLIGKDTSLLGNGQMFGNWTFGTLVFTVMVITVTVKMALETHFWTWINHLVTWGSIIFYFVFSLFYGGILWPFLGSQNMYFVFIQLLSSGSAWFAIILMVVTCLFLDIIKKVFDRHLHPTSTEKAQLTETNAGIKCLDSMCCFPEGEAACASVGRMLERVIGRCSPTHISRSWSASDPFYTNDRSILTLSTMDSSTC
Procedure, shortened: as §1

[3] = target: T3, CTDP1 (UniProt Q9Y5B0)
T3 sequence (whole entry): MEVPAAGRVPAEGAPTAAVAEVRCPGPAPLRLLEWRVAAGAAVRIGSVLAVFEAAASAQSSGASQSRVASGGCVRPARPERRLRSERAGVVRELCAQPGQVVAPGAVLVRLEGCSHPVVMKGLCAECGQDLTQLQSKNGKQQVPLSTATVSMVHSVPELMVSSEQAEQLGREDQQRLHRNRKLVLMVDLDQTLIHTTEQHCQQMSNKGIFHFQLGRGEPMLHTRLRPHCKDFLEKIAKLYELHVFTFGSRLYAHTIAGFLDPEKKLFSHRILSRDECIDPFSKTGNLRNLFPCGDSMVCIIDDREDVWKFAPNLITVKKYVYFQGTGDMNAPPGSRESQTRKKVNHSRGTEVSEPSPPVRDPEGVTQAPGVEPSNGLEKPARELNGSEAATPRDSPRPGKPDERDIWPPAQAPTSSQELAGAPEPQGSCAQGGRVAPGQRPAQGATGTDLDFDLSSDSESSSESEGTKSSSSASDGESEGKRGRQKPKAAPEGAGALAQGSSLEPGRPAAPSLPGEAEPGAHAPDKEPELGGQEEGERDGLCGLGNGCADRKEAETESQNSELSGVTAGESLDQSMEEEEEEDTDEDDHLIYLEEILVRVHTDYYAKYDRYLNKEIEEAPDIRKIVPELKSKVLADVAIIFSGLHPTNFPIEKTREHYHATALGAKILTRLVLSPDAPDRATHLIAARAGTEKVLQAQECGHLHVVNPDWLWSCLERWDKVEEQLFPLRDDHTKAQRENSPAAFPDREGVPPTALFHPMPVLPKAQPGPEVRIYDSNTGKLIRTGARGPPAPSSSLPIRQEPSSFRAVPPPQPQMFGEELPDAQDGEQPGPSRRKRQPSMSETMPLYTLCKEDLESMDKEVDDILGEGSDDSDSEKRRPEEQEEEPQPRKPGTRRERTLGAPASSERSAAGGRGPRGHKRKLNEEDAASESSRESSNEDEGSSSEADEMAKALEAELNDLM
Procedure, shortened: as §1

[4] = target: T4, DDX52 (UniProt Q9Y2R4)
T4 sequence (whole entry): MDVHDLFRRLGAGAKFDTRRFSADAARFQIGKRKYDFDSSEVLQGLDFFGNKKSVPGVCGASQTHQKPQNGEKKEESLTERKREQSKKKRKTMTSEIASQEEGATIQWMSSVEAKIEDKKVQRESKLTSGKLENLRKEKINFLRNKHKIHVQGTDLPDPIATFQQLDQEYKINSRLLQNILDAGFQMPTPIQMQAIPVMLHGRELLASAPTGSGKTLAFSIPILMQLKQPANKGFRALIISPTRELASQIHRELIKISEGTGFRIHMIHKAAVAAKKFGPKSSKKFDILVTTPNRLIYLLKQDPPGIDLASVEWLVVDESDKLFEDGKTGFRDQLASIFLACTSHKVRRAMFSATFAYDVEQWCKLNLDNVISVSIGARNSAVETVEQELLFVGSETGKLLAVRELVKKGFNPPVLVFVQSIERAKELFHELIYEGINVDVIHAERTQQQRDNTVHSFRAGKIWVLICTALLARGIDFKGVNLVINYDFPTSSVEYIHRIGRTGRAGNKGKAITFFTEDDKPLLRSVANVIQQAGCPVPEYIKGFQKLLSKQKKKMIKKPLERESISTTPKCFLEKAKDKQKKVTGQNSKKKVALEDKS
Procedure, shortened: as §1

Nc1nc2c(ncn2[C@@H]2O[C@H](COP(=O)(O)OP(=O)(O)OP(=O)(O)O)[C@@H](O)[C@H]2O)c(=O)[nH]1 [guanosine triphosphate] gave an NP40-soluble protein abundance ([1]; concentration: 0.1mM) of 0.992 ± 0.081, an NP40-soluble protein abundance ([1]; concentration: 0.5mM) of 1.02 ± 0.098 and an NP40-soluble protein abundance ([1]; concentration: 1mM) of 0.956 ± 0.11. It also gave an NP40-soluble protein abundance ([1]; concentration: 2mM) of 0.952 ± 0.092, an NP40-soluble protein abundance ([1]; concentration: 4mM) of 0.928 ± 0.041 and an NP40-soluble protein abundance ([1]; concentration: 6mM) of 0.955 ± 0.095. It also gave an NP40-soluble protein abundance ([1]; concentration: 8mM) of 0.916 ± 0.1, an NP40-soluble protein abundance ([1]; concentration: 10mM) of 0.918 ± 0.092 and an NP40-soluble protein abundance ([2]; concentration: 0.1mM) of 1.09 ± 0.13. It also gave an NP40-soluble protein abundance ([2]; concentration: 0.5mM) of 1.1 ± 0.081, an NP40-soluble protein abundance ([2]; concentration: 1mM) of 1.03 ± 0.11 and an NP40-soluble protein abundance ([2]; concentration: 2mM) of 1.02 ± 0.12. It also gave an NP40-soluble protein abundance ([2]; concentration: 4mM) of 1 ± 0.094, an NP40-soluble protein abundance ([2]; concentration: 6mM) of 1.01 ± 0.13 and an NP40-soluble protein abundance ([2]; concentration: 8mM) of 0.996 ± 0.12. For the same molecule, the NP40-soluble protein abundance ([2]; concentration: 10mM) was 0.963 ± 0.062, the NP40-soluble protein abundance ([3]; concentration: 0.1mM) was 1.05 ± 0.022 and the NP40-soluble protein abundance ([3]; concentration: 0.5mM) was 1.02 ± 0.032. For the same molecule, the NP40-soluble protein abundance ([3]; concentration: 1mM) was 1.091 ± 0.007, the NP40-soluble protein abundance ([3]; concentration: 2mM) was 1.05 ± 0.036 and the NP40-soluble protein abundance ([3]; concentration: 4mM) was 1.1 ± 0.04. It also gave an NP40-soluble protein abundance ([3]; concentration: 6mM) of 1.07 ± 0.041, an NP40-soluble protein abundance ([3]; concentration: 8mM) of 1.12 ± 0.08 and an NP40-soluble protein abundance ([3]; concentration: 10mM) of 1.05 ± 0.056. It also gave an NP40-soluble protein abundance ([4]; concentration: 0.1mM) of 0.995 ± 0.023, an NP40-soluble protein abundance ([4]; concentration: 0.5mM) of 1.05 ± 0.023 and an NP40-soluble protein abundance ([4]; concentration: 1mM) of 1.05 ± 0.024. For the same molecule, the NP40-soluble protein abundance ([4]; concentration: 2mM) was 1.14 ± 0.065.
